The other results are listed elsewhere or left out.
Compound: CO[C@H]1C[C@@H]2CC[C@@H](C)[C@@](O)(O2)C(=O)C(=O)N2CCCC[C@H]2C(=O)O[C@H]([C@H](C)C[C@@H]2CC[C@H](n3cnnn3)[C@H](OC)C2)CC(=O)[C@H](C)/C=C(\C)[C@@H](O)[C@@H](OC)C(=O)[C@H](C)C[C@H](C)/C=C/C=C/C=C/1C [zotarolimus]
Assay: log2 fold change, soluble protein after heating vs DMSO (PISA); higher = thermal stabilisation; K562 cells, 10 uM, 30 min; active = over 0.2 and 3.5 SD of the protein, either way, in both replicates (recomputed)
Method in brief: (§1)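 Quantification of soluble protein used TMTpro 16plex LC-MS/MS, with channel sums equalised. Samples were the supernatant after 21,000xg for 90 min of pooled aliquots from K562 cells (2×10^6 cells/mL) treated with 10 μM compound for 30 min, heated for 3 min over 48°C-58°C, and extracted in PBS with 0.5% NP-40 at 4°C. Values, from duplicates, describe thermal stability against control samples on a log2 fold-change scale.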

Chains of the proteins cited; added tags and fusions are not shown. Lines headed by an entry give the natural chain unless they say otherwise; changes in a name come on top.
UniProt Q9NYF3: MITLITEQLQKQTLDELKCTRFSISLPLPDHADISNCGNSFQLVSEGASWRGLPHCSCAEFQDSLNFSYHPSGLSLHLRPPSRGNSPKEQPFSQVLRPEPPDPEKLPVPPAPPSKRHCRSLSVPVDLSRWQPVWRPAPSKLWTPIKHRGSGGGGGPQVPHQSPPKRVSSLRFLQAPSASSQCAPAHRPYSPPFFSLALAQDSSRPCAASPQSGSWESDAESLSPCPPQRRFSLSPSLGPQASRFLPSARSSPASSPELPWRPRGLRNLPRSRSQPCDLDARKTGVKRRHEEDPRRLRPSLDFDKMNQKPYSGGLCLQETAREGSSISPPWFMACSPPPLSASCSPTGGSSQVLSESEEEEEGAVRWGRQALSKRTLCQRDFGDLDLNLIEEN
UniProt Q17RN3: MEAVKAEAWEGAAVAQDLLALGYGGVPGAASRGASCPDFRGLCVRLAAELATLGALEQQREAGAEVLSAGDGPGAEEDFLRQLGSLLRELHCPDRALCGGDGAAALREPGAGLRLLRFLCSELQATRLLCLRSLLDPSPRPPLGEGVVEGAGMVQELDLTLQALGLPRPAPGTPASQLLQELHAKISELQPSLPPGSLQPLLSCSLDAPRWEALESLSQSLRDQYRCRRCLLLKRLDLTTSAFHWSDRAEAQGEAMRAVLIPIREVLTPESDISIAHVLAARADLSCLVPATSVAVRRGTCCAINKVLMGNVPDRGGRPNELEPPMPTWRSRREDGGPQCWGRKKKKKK
UniProt Q13642: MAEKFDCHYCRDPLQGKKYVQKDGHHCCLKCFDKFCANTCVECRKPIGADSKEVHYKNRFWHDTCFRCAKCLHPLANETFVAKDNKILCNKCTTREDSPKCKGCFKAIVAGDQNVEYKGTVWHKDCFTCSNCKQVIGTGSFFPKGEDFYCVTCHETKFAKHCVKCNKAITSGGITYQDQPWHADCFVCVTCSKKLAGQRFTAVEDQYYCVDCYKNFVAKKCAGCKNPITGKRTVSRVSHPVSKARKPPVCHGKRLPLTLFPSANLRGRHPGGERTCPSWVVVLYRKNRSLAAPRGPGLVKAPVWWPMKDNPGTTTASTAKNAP
UniProt Q9NWM8: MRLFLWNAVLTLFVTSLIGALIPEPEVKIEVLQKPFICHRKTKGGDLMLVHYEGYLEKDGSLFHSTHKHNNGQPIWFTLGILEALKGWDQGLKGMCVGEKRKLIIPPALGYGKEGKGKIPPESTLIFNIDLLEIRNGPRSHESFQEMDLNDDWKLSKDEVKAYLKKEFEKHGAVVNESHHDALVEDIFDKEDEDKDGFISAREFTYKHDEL
UniProt Q9NYQ8: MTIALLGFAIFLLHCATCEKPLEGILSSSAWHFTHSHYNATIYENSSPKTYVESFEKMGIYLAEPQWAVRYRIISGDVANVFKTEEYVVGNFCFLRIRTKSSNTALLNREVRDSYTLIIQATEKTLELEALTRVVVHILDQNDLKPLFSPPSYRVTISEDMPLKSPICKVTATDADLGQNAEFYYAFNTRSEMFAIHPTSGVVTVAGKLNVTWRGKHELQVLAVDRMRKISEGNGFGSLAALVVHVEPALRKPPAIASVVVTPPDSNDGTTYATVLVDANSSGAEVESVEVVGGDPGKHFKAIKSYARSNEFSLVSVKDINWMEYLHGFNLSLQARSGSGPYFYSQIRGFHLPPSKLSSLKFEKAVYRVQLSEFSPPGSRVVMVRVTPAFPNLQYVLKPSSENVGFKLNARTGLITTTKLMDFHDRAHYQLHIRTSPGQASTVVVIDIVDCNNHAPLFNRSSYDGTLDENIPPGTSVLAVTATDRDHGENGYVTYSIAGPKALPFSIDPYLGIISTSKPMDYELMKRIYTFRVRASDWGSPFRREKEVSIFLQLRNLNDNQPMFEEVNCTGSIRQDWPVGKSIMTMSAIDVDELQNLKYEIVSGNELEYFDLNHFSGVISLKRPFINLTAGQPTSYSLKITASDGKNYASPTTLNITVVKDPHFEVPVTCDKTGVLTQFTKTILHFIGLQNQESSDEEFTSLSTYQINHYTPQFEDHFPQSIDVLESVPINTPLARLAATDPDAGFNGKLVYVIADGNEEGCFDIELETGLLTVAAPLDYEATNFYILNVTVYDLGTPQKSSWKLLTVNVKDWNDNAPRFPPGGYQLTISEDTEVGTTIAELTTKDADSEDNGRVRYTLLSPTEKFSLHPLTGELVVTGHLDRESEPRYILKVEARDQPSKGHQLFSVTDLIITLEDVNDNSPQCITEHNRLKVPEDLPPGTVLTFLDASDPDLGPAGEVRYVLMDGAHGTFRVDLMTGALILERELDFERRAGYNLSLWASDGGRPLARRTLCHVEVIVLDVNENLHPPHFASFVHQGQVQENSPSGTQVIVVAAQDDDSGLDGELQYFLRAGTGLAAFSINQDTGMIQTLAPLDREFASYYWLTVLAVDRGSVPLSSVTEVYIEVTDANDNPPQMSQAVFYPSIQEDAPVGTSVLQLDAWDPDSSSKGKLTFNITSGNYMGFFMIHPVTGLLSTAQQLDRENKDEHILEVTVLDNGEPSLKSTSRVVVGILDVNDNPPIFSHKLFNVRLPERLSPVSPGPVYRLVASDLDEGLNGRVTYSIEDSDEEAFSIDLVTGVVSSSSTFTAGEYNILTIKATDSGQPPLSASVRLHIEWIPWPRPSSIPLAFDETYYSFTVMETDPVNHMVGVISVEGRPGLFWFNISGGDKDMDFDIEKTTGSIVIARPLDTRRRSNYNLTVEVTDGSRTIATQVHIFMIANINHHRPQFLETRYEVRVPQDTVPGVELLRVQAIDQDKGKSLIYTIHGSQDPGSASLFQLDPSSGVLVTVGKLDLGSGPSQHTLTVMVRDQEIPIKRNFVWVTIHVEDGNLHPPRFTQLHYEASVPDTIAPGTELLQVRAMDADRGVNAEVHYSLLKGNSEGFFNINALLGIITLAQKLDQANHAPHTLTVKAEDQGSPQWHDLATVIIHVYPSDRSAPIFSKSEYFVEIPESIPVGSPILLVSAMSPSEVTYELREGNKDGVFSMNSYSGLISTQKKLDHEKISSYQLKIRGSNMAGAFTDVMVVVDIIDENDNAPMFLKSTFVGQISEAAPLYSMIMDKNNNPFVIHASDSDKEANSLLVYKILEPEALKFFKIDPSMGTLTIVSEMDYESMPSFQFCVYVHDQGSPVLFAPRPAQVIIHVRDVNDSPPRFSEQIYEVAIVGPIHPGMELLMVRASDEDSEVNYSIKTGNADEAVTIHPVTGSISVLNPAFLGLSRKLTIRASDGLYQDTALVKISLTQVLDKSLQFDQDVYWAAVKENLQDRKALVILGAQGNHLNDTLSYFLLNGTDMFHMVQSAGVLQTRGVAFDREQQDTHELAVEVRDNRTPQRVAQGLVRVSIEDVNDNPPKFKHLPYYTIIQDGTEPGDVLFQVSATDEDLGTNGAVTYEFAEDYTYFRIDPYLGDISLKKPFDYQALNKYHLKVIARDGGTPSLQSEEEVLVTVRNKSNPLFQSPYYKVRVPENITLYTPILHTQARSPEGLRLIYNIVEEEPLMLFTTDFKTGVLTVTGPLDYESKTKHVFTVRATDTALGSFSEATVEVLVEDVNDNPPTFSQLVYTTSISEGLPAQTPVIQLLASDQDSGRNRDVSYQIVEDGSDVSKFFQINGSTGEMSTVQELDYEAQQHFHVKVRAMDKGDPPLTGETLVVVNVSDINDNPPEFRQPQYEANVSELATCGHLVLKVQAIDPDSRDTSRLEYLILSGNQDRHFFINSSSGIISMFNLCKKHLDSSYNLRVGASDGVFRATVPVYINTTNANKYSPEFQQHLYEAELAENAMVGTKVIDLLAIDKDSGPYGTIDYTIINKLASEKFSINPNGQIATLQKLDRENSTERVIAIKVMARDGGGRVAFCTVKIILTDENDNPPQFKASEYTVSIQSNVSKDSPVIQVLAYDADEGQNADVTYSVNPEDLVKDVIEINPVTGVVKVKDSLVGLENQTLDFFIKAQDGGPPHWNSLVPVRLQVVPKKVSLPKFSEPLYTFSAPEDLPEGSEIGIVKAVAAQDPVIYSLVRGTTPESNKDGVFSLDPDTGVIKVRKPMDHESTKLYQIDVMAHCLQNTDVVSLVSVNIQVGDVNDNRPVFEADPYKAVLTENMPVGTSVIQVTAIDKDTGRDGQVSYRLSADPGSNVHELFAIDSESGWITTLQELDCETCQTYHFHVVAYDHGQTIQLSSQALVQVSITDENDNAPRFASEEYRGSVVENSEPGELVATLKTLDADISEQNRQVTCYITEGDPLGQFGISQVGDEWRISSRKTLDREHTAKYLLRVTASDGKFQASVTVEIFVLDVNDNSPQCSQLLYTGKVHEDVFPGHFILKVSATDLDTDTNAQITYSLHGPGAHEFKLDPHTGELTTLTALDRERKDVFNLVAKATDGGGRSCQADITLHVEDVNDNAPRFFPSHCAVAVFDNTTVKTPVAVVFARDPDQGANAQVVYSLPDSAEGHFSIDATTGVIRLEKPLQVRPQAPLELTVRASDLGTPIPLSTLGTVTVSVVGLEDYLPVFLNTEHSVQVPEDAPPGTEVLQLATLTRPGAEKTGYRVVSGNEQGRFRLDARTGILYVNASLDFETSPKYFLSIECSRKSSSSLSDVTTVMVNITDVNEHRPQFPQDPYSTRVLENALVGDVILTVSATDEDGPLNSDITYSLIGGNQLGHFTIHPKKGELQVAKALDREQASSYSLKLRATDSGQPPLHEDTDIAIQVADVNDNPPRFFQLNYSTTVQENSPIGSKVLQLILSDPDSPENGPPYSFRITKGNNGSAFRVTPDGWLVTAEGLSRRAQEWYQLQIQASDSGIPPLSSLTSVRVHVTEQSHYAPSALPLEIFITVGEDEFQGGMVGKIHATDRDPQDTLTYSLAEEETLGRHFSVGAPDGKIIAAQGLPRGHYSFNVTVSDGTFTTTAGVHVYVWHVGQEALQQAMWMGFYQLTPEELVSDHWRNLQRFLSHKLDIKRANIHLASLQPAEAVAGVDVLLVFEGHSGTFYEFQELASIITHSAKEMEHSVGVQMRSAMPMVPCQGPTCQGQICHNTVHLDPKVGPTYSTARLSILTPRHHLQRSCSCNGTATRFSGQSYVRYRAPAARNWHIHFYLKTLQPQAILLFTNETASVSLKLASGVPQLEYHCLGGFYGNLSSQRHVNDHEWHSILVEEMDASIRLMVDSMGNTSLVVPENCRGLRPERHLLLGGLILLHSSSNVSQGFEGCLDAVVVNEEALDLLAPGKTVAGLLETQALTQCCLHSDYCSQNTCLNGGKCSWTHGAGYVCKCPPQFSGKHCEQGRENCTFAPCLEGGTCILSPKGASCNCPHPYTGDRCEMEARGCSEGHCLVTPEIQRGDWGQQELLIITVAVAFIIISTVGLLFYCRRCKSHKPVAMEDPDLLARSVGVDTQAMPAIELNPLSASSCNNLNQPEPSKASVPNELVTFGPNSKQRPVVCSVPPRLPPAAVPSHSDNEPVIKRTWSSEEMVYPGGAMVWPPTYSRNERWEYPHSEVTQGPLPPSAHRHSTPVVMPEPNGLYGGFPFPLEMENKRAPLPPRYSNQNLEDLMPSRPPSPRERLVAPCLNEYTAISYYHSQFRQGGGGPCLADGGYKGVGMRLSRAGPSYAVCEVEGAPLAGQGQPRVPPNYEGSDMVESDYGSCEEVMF
UniProt Q86UY5: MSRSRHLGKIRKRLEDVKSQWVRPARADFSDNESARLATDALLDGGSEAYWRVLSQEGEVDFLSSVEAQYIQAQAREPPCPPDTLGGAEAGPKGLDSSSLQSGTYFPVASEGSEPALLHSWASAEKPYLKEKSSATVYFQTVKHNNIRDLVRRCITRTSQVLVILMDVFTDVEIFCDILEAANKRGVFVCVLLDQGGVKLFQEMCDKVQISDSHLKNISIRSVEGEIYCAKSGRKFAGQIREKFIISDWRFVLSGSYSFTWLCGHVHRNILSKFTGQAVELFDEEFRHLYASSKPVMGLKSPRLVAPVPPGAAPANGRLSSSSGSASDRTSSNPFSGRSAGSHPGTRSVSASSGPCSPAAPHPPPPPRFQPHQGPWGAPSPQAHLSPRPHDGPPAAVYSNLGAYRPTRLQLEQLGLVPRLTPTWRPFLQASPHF
UniProt Q9H9S5: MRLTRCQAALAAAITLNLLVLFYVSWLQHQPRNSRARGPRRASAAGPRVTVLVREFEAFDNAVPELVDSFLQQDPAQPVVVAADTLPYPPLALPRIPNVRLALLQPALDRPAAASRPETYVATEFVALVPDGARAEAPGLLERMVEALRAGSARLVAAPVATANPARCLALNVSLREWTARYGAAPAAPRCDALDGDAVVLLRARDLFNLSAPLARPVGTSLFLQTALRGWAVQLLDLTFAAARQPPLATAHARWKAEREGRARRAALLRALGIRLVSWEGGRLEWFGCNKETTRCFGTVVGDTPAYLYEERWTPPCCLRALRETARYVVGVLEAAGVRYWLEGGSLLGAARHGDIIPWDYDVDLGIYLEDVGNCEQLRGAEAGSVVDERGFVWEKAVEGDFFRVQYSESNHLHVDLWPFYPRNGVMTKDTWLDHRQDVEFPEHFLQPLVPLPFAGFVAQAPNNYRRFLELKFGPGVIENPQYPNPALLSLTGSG

log2 fold change, inactive:
FBXL8 (UniProt Q96CD0) -0.149
FAM53C (UniProt Q9NYF3) -0.29
FAM98C (UniProt Q17RN3) -0.027
FASTKD5 (UniProt Q7L8L6) -0.316
FGB (UniProt P02675) -0.056
FNIP1 (UniProt Q8TF40) 0.201
FBXO44 (UniProt Q9H4M3) 0.028
FLII isoform 2 (UniProt Q13045) 0.313
FHL1 isoform 4 (UniProt Q13642) -0.241
FANCL isoform 2 (UniProt Q9NW38) -0.093
FARP2 (UniProt O94887) -0.09
FKBP14 (UniProt Q9NWM8) -0.019
FGFR1OP2 isoform 2 (UniProt Q9NVK5) 0.142
FAT2 (UniProt Q9NYQ8) 0.104

Compound: COc1cc(C(=O)O)ccc1NC(=O)[C@@H]1N[C@@H](CC(C)(C)C)[C@](C#N)(c2ccc(Cl)cc2F)[C@H]1c1cccc(Cl)c1F [idasanutlin]
Assay: as above
Method in brief: as §1

log2 fold change, inactive:
FMNL1 isoform 3 (UniProt O95466) 0.058
FAM222B (UniProt Q8WU58) 0.077
FAM98C (UniProt Q17RN3) -0.016
FASTKD5 (UniProt Q7L8L6) -0.074
FGB (UniProt P02675) -0.042
FAT4 (UniProt Q6V0I7) 0.036
FBRSL1 (UniProt Q9HCM7) -0.21
FAM83A (UniProt Q86UY5) 0.066
FNBP1 (UniProt Q96RU3) 0.054
FKRP (UniProt Q9H9S5) -0.076
FLII isoform 2 (UniProt Q13045) -0.065
FBF1 isoform 6 (UniProt Q8TES7) -0.182
FHL1 isoform 4 (UniProt Q13642) 0.081
FANCL isoform 2 (UniProt Q9NW38) -0.363
FER (UniProt P16591) 0.911
FARP2 (UniProt O94887) -0.322
FMR1NB (UniProt Q8N0W7) 0.039
FAM76A isoform 3 (UniProt Q8TAV0) 0.047
FKBP14 (UniProt Q9NWM8) 0.007
FMOD (UniProt Q06828) 0.037

Compound: COc1cc(Nc2ncc3c(n2)-c2ccc(Cl)cc2C(c2c(F)cccc2OC)=NC3)ccc1C(=O)O [alisertib]
Assay: as above
Method in brief: as §1

log2 fold change, inactive:
FAM222B (UniProt Q8WU58) -0.04
FAM98C (UniProt Q17RN3) 0.101
FGB (UniProt P02675) 0.304
FAT4 (UniProt Q6V0I7) 0.13
FAM83A (UniProt Q86UY5) 0.174
FAM53B (UniProt Q14153) -0.138
FNIP1 (UniProt Q8TF40) -0.087
FAM219B (UniProt Q5XKK7) -0.033
FKRP (UniProt Q9H9S5) 0.179
FBXO11 isoform 5 (UniProt Q86XK2) -0.029
FKBP14 (UniProt Q9NWM8) -0.021
FITM2 (UniProt Q8N6M3) 0.045
FBXL4 (UniProt Q9UKA2) 0.163
FAT2 (UniProt Q9NYQ8) 0.208

Compound: COc1cc2nc(-c3cc(F)ccc3O)nc(N[C@@H]3CNC[C@H]3C(C)(C)O)c2cc1OC
Assay: as above
Method in brief: as §1

log2 fold change, inactive:
FAM222B (UniProt Q8WU58) -0.067
FAM53C (UniProt Q9NYF3) -0.174
FASTKD5 (UniProt Q7L8L6) 0.319
FAM83A (UniProt Q86UY5) 0.026
FIG4 (UniProt Q92562) -0.016
FNIP1 (UniProt Q8TF40) -0.109
FAM219B (UniProt Q5XKK7) -0.038
FLT1 (UniProt P17948) 0.352
FKRP (UniProt Q9H9S5) 0.014
FLII isoform 2 (UniProt Q13045) 0.028
FBXO11 isoform 5 (UniProt Q86XK2) 0.108
FHL1 isoform 4 (UniProt Q13642) 0.078
FARP2 (UniProt O94887) 0.237
FAM76A isoform 3 (UniProt Q8TAV0) 0.066
FKBP14 (UniProt Q9NWM8) -0.045
FGFR1OP2 isoform 2 (UniProt Q9NVK5) -0.098
FAT2 (UniProt Q9NYQ8) 0.031
FGG (UniProt P02679) -0.068

Compound: COc1cc2ncnc(Nc3ccc(F)c(Cl)c3)c2cc1OCCCN1CCOCC1 [gefitinib]
Assay: as above
Method in brief: as §1

log2 fold change, inactive:
FAM53C (UniProt Q9NYF3) -0.003
FGB (UniProt P02675) -0.024
FAT4 (UniProt Q6V0I7) 0.071
FBRSL1 (UniProt Q9HCM7) 0.024
FAM83A (UniProt Q86UY5) 0.028
FBXO44 (UniProt Q9H4M3) 0.07
FKRP (UniProt Q9H9S5) -0.023
FBF1 isoform 6 (UniProt Q8TES7) 0.206
FHL1 isoform 4 (UniProt Q13642) -0.301
FKBP14 (UniProt Q9NWM8) 0.046
FAXDC2 (UniProt Q96IV6) -0.024
FITM2 (UniProt Q8N6M3) 0.006

— the supplement of paper PMC10849652
